Test results as given in the supplement of paper PMC10849652.
Some of the results follow.

By UniProt entry, the sequences of proteins in these tests, tags left out. Where a name states a change or a piece, a line headed by the entry shows the natural chain unless it says otherwise.
UniProt P78356: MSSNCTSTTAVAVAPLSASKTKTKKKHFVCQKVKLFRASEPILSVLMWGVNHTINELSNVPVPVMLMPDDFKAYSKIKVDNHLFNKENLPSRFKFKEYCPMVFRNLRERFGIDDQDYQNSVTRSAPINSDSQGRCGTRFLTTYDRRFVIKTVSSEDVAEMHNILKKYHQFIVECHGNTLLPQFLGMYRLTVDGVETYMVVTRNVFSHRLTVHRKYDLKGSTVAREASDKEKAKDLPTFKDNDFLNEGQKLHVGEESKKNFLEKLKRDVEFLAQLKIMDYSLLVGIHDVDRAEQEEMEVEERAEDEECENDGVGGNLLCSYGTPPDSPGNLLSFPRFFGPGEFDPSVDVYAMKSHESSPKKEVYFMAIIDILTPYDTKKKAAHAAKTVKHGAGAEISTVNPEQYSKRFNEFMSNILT
UniProt Q8TEQ8: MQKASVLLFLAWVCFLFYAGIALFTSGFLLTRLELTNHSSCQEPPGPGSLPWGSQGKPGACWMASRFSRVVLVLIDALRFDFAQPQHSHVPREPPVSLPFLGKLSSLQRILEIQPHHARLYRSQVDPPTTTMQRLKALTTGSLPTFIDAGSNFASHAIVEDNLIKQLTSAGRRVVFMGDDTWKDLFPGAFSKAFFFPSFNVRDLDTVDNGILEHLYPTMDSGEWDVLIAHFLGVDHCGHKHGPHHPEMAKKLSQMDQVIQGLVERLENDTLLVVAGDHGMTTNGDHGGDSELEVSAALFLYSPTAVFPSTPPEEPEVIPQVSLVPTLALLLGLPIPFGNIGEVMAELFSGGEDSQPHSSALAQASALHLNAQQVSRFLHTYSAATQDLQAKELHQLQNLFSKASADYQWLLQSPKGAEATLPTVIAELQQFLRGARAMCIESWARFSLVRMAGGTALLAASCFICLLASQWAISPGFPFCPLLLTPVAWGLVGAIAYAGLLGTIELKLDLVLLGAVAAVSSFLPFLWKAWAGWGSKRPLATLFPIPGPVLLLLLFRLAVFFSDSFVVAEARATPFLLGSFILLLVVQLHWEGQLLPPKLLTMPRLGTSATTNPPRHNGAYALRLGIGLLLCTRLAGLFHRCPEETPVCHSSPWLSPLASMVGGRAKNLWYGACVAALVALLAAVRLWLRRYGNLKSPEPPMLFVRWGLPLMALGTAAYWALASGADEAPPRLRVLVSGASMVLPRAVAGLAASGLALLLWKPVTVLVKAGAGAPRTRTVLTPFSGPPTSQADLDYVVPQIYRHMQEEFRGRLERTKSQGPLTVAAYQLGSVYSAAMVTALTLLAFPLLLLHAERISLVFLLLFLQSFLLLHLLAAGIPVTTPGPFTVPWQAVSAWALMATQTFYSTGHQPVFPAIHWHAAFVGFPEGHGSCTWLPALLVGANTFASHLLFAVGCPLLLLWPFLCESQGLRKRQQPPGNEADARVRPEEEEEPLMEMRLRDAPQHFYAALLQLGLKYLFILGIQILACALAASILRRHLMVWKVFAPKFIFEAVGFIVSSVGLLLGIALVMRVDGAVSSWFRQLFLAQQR
UniProt Q8NCC3: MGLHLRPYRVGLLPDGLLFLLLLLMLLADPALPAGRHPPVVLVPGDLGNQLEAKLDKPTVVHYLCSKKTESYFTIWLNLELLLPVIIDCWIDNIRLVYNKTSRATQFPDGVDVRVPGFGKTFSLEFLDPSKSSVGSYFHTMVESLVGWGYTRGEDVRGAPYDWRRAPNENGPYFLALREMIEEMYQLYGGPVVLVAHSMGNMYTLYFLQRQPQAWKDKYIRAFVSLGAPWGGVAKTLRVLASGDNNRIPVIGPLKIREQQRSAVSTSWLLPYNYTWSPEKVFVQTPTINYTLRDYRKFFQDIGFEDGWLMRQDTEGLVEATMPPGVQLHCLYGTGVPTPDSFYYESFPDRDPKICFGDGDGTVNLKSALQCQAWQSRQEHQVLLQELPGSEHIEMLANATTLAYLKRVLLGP
UniProt Q9HAU0: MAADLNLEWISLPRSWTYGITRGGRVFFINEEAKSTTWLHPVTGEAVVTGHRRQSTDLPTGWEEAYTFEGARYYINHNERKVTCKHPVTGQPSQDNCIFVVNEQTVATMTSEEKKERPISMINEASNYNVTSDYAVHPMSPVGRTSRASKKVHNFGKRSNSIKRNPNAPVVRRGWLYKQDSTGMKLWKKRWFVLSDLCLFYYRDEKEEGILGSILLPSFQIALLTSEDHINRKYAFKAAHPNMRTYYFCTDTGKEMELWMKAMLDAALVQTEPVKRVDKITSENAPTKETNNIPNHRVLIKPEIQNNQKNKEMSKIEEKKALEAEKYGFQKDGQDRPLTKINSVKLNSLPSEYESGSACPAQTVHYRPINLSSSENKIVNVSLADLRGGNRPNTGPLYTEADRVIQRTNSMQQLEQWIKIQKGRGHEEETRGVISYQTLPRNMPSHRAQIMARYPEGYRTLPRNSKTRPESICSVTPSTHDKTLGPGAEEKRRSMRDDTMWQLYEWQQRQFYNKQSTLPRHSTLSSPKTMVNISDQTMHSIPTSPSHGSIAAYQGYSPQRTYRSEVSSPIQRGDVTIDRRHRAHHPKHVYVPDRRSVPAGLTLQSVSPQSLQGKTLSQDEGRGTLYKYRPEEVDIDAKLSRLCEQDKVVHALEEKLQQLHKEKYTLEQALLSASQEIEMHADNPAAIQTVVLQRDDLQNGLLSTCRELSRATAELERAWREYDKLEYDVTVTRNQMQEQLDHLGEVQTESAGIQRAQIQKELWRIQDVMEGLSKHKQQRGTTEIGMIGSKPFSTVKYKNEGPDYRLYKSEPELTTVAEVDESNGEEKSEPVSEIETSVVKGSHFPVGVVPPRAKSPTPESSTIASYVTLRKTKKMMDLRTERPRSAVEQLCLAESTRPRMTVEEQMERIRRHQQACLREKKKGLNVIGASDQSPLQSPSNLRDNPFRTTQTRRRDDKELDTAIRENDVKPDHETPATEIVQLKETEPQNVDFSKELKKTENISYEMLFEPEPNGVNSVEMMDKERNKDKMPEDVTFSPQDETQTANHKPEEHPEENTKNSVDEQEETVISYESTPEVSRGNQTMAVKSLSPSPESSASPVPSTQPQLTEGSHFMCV
UniProt Q9H8W4: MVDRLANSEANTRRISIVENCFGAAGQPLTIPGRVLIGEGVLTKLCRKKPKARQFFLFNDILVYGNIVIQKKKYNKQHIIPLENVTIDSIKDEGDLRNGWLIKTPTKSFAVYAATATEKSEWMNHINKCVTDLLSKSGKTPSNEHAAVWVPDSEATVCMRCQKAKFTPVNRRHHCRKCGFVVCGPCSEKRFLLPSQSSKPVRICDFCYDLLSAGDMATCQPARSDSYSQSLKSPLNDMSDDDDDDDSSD
UniProt Q8TBX8: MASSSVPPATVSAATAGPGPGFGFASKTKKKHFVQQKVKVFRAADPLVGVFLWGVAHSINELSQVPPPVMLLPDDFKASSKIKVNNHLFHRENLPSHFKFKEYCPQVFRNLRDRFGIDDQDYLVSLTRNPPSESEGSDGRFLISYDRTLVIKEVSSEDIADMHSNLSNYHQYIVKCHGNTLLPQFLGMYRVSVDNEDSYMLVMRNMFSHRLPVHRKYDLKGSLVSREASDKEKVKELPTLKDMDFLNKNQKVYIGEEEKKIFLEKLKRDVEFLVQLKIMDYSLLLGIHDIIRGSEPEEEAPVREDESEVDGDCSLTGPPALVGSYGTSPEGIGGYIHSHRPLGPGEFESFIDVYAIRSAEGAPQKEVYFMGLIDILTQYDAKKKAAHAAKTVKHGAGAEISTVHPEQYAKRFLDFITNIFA
UniProt Q13526, whole entry, looked up: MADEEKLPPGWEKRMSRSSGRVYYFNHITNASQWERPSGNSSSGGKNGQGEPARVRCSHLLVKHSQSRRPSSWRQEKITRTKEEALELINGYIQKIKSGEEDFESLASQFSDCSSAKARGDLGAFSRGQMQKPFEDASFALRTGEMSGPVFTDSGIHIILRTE
UniProt P48426: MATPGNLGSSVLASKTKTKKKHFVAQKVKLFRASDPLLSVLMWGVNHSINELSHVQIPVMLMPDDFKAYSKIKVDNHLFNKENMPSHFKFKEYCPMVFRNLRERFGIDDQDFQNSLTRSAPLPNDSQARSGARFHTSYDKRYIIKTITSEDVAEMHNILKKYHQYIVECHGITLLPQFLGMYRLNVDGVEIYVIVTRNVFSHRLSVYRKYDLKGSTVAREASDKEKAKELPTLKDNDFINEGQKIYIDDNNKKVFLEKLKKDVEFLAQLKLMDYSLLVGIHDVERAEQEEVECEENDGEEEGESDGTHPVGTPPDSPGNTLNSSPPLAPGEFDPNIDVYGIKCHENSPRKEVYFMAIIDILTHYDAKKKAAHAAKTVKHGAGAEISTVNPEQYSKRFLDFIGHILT
UniProt O43164: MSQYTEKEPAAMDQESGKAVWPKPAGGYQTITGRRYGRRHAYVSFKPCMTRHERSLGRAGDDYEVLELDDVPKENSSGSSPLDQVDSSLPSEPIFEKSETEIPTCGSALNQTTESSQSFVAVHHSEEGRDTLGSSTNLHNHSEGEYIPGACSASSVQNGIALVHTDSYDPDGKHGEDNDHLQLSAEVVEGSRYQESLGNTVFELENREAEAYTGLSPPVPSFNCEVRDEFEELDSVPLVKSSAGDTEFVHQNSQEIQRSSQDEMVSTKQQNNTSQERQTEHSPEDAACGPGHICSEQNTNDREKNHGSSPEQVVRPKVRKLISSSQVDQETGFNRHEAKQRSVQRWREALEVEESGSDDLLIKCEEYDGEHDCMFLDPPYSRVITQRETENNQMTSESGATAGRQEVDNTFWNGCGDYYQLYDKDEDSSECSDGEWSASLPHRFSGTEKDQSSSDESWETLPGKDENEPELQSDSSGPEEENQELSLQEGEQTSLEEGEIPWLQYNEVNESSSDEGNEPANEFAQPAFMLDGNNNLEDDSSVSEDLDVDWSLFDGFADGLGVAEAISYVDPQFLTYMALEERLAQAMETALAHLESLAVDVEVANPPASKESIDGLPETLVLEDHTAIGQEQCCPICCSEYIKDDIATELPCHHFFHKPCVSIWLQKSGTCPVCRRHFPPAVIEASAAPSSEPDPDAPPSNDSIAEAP
UniProt Q96BK5: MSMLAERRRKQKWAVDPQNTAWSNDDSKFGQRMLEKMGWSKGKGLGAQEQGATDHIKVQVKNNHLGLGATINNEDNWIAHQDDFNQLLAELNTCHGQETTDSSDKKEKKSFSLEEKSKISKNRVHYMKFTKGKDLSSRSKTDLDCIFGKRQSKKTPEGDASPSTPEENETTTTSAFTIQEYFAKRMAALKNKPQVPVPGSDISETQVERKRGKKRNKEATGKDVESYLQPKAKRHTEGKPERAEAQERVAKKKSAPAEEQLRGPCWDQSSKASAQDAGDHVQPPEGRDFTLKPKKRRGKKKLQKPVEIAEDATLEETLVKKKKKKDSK
UniProt Q92643: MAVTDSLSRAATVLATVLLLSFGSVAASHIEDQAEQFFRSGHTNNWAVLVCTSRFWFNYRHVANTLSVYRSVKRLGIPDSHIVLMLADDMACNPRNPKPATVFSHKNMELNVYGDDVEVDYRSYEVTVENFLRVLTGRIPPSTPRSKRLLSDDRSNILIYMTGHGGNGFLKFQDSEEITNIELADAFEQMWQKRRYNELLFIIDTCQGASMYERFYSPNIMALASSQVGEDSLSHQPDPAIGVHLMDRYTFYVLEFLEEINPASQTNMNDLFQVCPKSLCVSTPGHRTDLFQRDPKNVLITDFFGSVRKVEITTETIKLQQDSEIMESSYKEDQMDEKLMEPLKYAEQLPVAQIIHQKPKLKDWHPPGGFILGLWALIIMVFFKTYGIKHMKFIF
UniProt Q8TCD6: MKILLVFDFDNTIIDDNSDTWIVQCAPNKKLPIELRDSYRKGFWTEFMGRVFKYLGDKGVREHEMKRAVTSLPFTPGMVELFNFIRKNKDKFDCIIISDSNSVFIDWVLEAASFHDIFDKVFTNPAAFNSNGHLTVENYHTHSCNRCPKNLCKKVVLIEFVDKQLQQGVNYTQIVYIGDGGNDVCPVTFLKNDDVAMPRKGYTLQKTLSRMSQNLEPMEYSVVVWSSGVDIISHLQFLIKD
UniProt Q16816: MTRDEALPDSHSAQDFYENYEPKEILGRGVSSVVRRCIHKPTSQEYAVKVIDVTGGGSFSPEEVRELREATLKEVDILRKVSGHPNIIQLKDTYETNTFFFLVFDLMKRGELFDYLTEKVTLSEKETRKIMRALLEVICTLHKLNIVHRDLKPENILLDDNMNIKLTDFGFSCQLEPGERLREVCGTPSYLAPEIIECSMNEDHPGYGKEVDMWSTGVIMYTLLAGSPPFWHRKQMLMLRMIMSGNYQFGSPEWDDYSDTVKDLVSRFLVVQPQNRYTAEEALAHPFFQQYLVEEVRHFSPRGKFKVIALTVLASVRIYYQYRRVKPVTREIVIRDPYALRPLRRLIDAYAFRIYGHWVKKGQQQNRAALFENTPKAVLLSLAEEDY
UniProt Q9GZP4: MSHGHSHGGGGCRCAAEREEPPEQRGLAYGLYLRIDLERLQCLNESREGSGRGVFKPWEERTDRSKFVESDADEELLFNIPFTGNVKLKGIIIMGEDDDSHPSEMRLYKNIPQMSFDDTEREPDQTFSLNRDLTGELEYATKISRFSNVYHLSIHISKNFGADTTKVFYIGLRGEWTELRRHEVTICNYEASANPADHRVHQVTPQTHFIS

Tests used:
Assay in all cases: log2 fold change, soluble protein after heating vs DMSO (PISA); higher = thermal stabilisation; K562 lysate, 10 uM; active = over 0.2 and 3.5 SD of the protein, either way, in both replicates (recomputed)
nilotinib = compound: Cc1cn(-c2cc(NC(=O)c3ccc(C)c(Nc4nccc(-c5cccnc5)n4)c3)cc(C(F)(F)F)c2)cn1 [nilotinib]
Method in brief: (§1)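 A 30 min treatment with 10 μM compound was applied to crude K562 extract at 1 mg/mL protein in PBS pH 7.4 with 1 mM MgCl2. Heating for 3 min spanned 48°C-58°C, after which aliquots were pooled, adjusted to 0.5% NP-40 at 4°C and spun at 21,000xg for 90 min. TMTpro 16plex LC-MS/MS of the supernatant, with channel sums equalised, gave values recorded as log-two fold change in thermal stability against solvent controls, from duplicates.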

[1] = compound: Cc1nc(Nc2n[nH]c3c2CN(C(=O)N[C@H](CN(C)C)c2ccccc2)C3(C)C)c2sccc2n1
Method in brief: as §1

dasatinib = compound: Cc1nc(Nc2ncc(C(=O)Nc3c(C)cccc3Cl)s2)cc(N2CCN(CCO)CC2)n1 [dasatinib]
Method in brief: as §1

[2] = compound: Cc1ncc(-c2ccnc(Nc3ccc(S(C)(=O)=O)cc3)n2)n1C(C)C
Method in brief: as §1

[3] = compound: Cn1cc(-c2ccc3c(c2)CCN3C(=O)Cc2cccc(C(F)(F)F)c2)c2c(N)ncnc21
Method in brief: as §1

quisinostat = compound: Cn1cc(CNCC2CCN(c3ncc(C(=O)NO)cn3)CC2)c2ccccc21 [quisinostat]
Method in brief: as §1

tipifarnib = compound: Cn1cncc1[C@@](N)(c1ccc(Cl)cc1)c1ccc2c(c1)c(-c1cccc(Cl)c1)cc(=O)n2C [tipifarnib]
Method in brief: as §1

[4] = compound: NC(=O)Nc1cc(-c2cccc(F)c2)sc1C(=O)N[C@H]1CCCNC1
Method in brief: as §1

[5] = compound: NC(=O)c1cnc(N[C@@H]2CCCC[C@@H]2N)nc1Nc1cccc(-n2nccn2)c1
Method in brief: as §1

[6] = compound: NC1(c2ccc(-c3nc4ccn5c(=O)[nH]nc5c4cc3-c3ccccc3)cc2)CCC1
Method in brief: as §1

[7] = compound: NCC(=O)Nc1ccc(-n2nc(C(F)(F)F)cc2-c2ccc3c(ccc4ccccc43)c2)cc1
Method in brief: as §1

vorinostat = compound: O=C(CCCCCCC(=O)Nc1ccccc1)NO [vorinostat]
Method in brief: as §1

silmitasertib = compound: O=C(O)c1ccc2c(c1)nc(Nc1cccc(Cl)c1)c1ccncc12 [silmitasertib]
Method in brief: as §1

[8] = compound: O=C1NC(=O)C(c2cnc3ccccn23)=C1c1cn2c3c(cc(F)cc13)CN(C(=O)N1CCCCC1)CC2
Method in brief: as §1

entospletinib = compound: c1cn2cc(-c3ccc4cn[nH]c4c3)nc(Nc3ccc(N4CCOCC4)cc3)c2n1 [entospletinib]
Method in brief: as §1

Measured: log2 fold change

PIP4K2B (UniProt P78356)
inactive: nilotinib 0.032 | [1] 0.024 | dasatinib 0.151 | [2] 0.093 | [3] 0.008 | quisinostat -0.017 | tipifarnib -0.007 | [4] 0 | [5] 0.002 | [6] -0.034 | [7] 0.005 | vorinostat 0.074 | silmitasertib 0.221 | [8] 0.073 | entospletinib -0.013

PIGO (UniProt Q8TEQ8)
inactive: nilotinib -0.019 | [1] 0.055 | dasatinib -0.032 | [2] -0.19 | [3] 0.079 | quisinostat -0.119 | tipifarnib 0.013 | [4] 0.301 | [5] 0.059 | [6] 0.041 | [7] -0.156 | vorinostat 0.15 | silmitasertib 0.18 | [8] 0.121 | entospletinib -0.015

PKM (UniProt P14618)
inactive: nilotinib -0.01 | [1] -0.028 | dasatinib -0.014 | [2] 0 | [3] -0.018 | quisinostat 0.017 | tipifarnib 0.006 | [4] -0.009 | [5] 0.001 | [6] 0.027 | [7] 0.019 | vorinostat -0.053 | silmitasertib -0.02 | [8] 0.025 | entospletinib 0.008

PGM3 isoform 4 (UniProt O95394)
inactive: nilotinib 0.004 | [1] -0.007 | dasatinib -0.017 | [2] -0.015 | [3] 0.037 | quisinostat 0.026 | tipifarnib 0.008 | [4] 0.002 | [5] 0.001 | [6] 0.016 | [7] -0.039 | vorinostat -0.078 | silmitasertib 0.03 | [8] -0.049 | entospletinib 0.032

PLA2G15 (UniProt Q8NCC3)
inactive: nilotinib 0.013 | [1] -0.003 | dasatinib 0.004 | [2] -0.002 | [3] 0.009 | quisinostat -0.1 | tipifarnib 0.014 | [4] 0.008 | [5] -0.041 | [6] 0.005 | [7] -0.002 | vorinostat -0.021 | silmitasertib -0.018 | [8] -0.016 | entospletinib -0.012

PICALM (UniProt H0YEH1)
inactive: nilotinib -0.023 | [1] -0.012 | dasatinib -0.039 | [2] -0.007 | [3] -0.005 | quisinostat -0.095 | tipifarnib 0.019 | [4] 0.166 | [5] -0.021 | [6] -0.042 | [7] -0.048 | vorinostat 0.037 | silmitasertib -0.045 | [8] -0.075 | entospletinib -0.237

PLEKHA5 isoform 6 (UniProt Q9HAU0)
active: vorinostat -0.305
inactive: nilotinib -0.052 | [1] 0.032 | dasatinib 0.006 | [2] -0.005 | [3] 0.021 | quisinostat -0.011 | tipifarnib 0.009 | [4] 0.011 | [5] -0.008 | [6] -0.003 | [7] -0.029 | silmitasertib -0.003 | [8] -0.016 | entospletinib 0.022

PLEKHF2 (UniProt Q9H8W4)
inactive: nilotinib -0.03 | [1] 0.005 | dasatinib -0.068 | [2] 0.073 | [3] -0.086 | quisinostat -0.092 | tipifarnib 0.005 | [4] -0.013 | [5] -0.024 | [6] 0.038 | [7] -0.033 | vorinostat -0.107 | silmitasertib -0.028 | [8] -0.016 | entospletinib 0

PLA2G4B isoform 6 (UniProt P0C869)
active: quisinostat -0.671
inactive: nilotinib -0.177 | [1] 0.259 | dasatinib -0.1 | [2] -0.326 | [3] -0.047 | tipifarnib 0.022 | [4] 0.158 | [5] 0.006 | [6] -0.073 | [7] -0.008 | vorinostat 0.002 | silmitasertib -0.017 | [8] 0.264 | entospletinib 0.06

PIP4K2C (UniProt Q8TBX8)
inactive: nilotinib 0.169 | [1] -0.015 | dasatinib 0.047 | [2] 0.298 | [3] 0.029 | quisinostat -0.095 | tipifarnib -0.012 | [4] 0.035 | [5] 0.033 | [6] -0.085 | [7] 0.021 | vorinostat -0.07 | [8] 0.063 | entospletinib 0.004
active: silmitasertib 0.425

PIN1 (UniProt Q13526)
inactive: nilotinib -0.008 | [1] 0.032 | dasatinib 0.009 | [2] 0.007 | [3] 0.031 | quisinostat 0.057 | tipifarnib 0.015 | [4] 0.004 | [5] -0.015 | [6] 0.005 | [7] -0.002 | vorinostat 0.008 | silmitasertib -0.008 | [8] 0.065 | entospletinib -0.002

PIP4K2A (UniProt P48426)
inactive: nilotinib 0.041 | [1] -0.006 | dasatinib 0.068 | [2] 0.141 | [3] 0.046 | quisinostat -0.001 | tipifarnib -0.062 | [4] 0.039 | [5] -0.012 | [6] -0.056 | [7] 0.027 | vorinostat 0.024 | silmitasertib 0.225 | [8] 0.007 | entospletinib -0.029

PGRMC1 (UniProt O00264)
inactive: nilotinib 0.028 | [1] 0.015 | dasatinib 0.026 | [2] -0.078 | [3] 0.012 | quisinostat 0.106 | tipifarnib 0.003 | [4] -0.059 | [5] 0.017 | [6] 0.056 | [7] -0.018 | vorinostat 0.113 | silmitasertib 0.017 | [8] 0.014 | entospletinib -0.02

PJA2 (UniProt O43164)
inactive: nilotinib -0.04 | [1] 0.032 | dasatinib -0.01 | [2] -0.047 | [3] -0.062 | quisinostat -0.023 | tipifarnib -0.085 | [4] 0.018 | [5] 0.015 | [6] 0.009 | [7] 0.073 | vorinostat -0.115 | silmitasertib 0.008 | [8] -0.012 | entospletinib 0.005

PINX1 (UniProt Q96BK5)
inactive: nilotinib -0.041 | [1] 0.094 | dasatinib -0.045 | [2] 0.025 | [3] 0.034 | quisinostat -0.139 | tipifarnib -0.086 | [4] 0.034 | [5] -0.03 | [6] -0.012 | [7] 0.212 | vorinostat 0.013 | silmitasertib -0.035 | [8] -0.089 | entospletinib -0.126

PLBD2 (UniProt Q8NHP8)
inactive: nilotinib 0.016 | [1] -0.041 | dasatinib 0.023 | [2] -0.134 | [3] -0.002 | quisinostat -0.057 | tipifarnib 0.004 | [4] -0.002 | [5] 0.011 | [6] -0.016 | [7] 0.014 | vorinostat 0.132 | silmitasertib -0.008 | [8] -0.048 | entospletinib -0.084

Copied from the results shown (2 entries):
PINX1 (UniProt Q96BK5)
inactive: nilotinib -0.041 | [1] 0.094 | dasatinib -0.045 | [2] 0.025 | [3] 0.034 | quisinostat -0.139 | tipifarnib -0.086 | [4] 0.034 | [5] -0.03 | [6] -0.012 | [7] 0.212 | vorinostat 0.013 | silmitasertib -0.035 | [8] -0.089 | entospletinib -0.126

PLBD2 (UniProt Q8NHP8)
inactive: nilotinib 0.016 | [1] -0.041 | dasatinib 0.023 | [2] -0.134 | [3] -0.002 | quisinostat -0.057 | tipifarnib 0.004 | [4] -0.002 | [5] 0.011 | [6] -0.016 | [7] 0.014 | vorinostat 0.132 | silmitasertib -0.008 | [8] -0.048 | entospletinib -0.084

(further entries)

PIGK (UniProt Q92643)
inactive: nilotinib -0.017 | [1] 0.051 | dasatinib 0.007 | [2] -0.023 | [3] 0.004 | quisinostat 0.067 | tipifarnib -0.016 | [4] 0.016 | [5] 0.027 | [6] 0.002 | [7] 0.003 | vorinostat 0.134 | silmitasertib 0.03 | [8] -0.002 | entospletinib -0.011

PHOSPHO2 (UniProt Q8TCD6)
inactive: nilotinib 0.003 | [1] -0.013 | dasatinib 0.024 | [2] 0.038 | [3] -0.033 | quisinostat 0.03 | tipifarnib 0.068 | [4] -0.036 | [5] -0.004 | [6] 0.013 | [7] -0.051 | vorinostat 0.181 | silmitasertib -0.002 | [8] 0.001 | entospletinib -0.116

PHKG1 isoform 2 (UniProt Q16816)
active: [1] 1.01 | [4] 1.31
inactive: nilotinib -0.049 | dasatinib -0.124 | [2] -0.204 | [3] -0.021 | quisinostat -0.151 | tipifarnib -0.007 | [5] 0.043 | [6] -0.181 | [7] 0.053 | vorinostat -0.342 | silmitasertib 0.259 | [8] -0.123 | entospletinib -0.002

PITHD1 (UniProt Q9GZP4)
inactive: nilotinib 0.021 | [1] 0.017 | dasatinib 0.016 | [2] 0.036 | [3] -0.044 | quisinostat -0.076 | tipifarnib 0.001 | [4] 0.017 | [5] -0.012 | [6] 0.001 | [7] 0.041 | vorinostat 0.101 | silmitasertib -0.031 | [8] 0.05 | entospletinib -0.049
